Experimental findings from publication PMC7498670 are described below.

These are yes or no findings as the source states them, for the method shown. Binding can be weak; no strength is given. Where a sequence is shown, tags or fusion partners need not be part of it. For some assays here: Binding seen in cells or lysates may run through a third protein.

Experiment [1] has as its target T1, AtHUB2 (yeast two-hybrid fusion) (Arabidopsis) (UniProt Q9C895).
T1 sequence: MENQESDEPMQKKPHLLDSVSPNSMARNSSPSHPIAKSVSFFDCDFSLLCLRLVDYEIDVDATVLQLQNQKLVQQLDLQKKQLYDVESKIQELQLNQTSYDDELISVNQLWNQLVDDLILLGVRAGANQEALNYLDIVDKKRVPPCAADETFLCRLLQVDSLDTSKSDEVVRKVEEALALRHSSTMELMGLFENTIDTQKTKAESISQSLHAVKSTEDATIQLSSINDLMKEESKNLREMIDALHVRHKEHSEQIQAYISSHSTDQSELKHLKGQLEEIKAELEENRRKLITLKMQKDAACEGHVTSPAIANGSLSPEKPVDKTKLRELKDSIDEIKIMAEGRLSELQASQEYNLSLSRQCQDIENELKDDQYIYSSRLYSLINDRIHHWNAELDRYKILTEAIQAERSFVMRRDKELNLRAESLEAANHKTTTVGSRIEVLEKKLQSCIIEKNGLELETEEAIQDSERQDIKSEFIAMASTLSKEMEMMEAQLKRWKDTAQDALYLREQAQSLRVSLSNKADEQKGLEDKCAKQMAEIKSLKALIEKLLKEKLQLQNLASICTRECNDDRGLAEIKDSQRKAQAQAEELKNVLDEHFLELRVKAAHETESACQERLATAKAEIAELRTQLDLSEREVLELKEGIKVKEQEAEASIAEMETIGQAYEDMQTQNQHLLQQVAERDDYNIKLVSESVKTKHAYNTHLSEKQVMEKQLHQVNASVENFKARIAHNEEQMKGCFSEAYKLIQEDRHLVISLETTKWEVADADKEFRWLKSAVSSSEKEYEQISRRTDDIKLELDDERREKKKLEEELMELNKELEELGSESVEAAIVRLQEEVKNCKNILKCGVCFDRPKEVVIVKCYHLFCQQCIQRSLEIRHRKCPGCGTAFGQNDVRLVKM
As to the kind of experiment: two-hybrid; genes in pGBKT7 and pGADT7, co-transformed into AH109 yeast; growth and quantitative beta-galactosidase activity (Clontech Yeast Protocols Handbook).

The target in experiment [2] is T2, AtHUB2 (BiFC fusion with the C-terminal part of YFP) (Arabidopsis) (UniProt Q9C895).
T2 sequence: T1 sequence
As to the kind of experiment: split reporter; BiFC with split YFP (pVYNE(R) and pVYCE(R)), vectors co-transformed in pairs into Arabidopsis protoplasts; DAPI for the nucleus; confocal microscopy.

For “GmUBC9 (yeast two-hybrid fusion) (soybean (Glycine max)) (enzyme)”, the binding entry in experiment [1] is “binds”.

For “GmUBC9-eYNP (BiFC fusion of GmUBC9 with the N-terminal part of YFP) (soybean (Glycine max)) (enzyme)”, in experiment [2], the binding entry is “binds”.
